The nature of the test: qHTS Assay for Lipid Storage Modulators in Drosophila S3 Cells.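 On cell number change: cells counted by Cell Tracker Red CMTPX staining in the red channel.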 As to conditions: BODIPY lipid droplet fluorescence, 18-24 h; for cell number change: measured here: cell count max response, cells fed with added oleic acid. A digest of the protocol:
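Drosophila S3 cells loaded with oleic acid (400 uM, as added) and compounds at several concentrations; lipid droplets imaged by 488-nm laser-scanning cytometry, 500–530 nm intensity and object ratio to cell channel. Percent activity normalized to 20 uM Triacsin C.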

[1] abbreviates: measured here: cell number channel AC50, cells fed with added oleic acid.
Where [2] appears, read: measured here: lipid fluorescence (Fed channel) AC50, cells fed with added oleic acid.

The list shows a part of the results. These are further read-outs of the screen, such as a control signal, another cell line or another target. No call is given for them. Most of these compounds were active or inconclusive in the main read-out, so they are no random draw. The note in brackets gives the kind of curve behind each potency; many fits are weak.

With `C=CCNS(=O)(=O)c1cccc(C(C)=O)c1`, the cell number change came to 2.07%.

For `CC(C)c1onc(C(=O)NCc2ccccn2)c1[N+](=O)[O-]`, the cell number change was -14.2%. Also, under setting [1], the AC50 was 6.51 µM [falling, partial curve].

Take `Cc1cc(Nc2ccc(F)cc2Cl)n2nc(C)nc2n1`: the cell number change is 12.9%. Besides, under setting [2], the half-maximal activity concentration (AC50) is 29.1 µM [rising, single point].

For `COc1cc(C(c2c(C)[nH][nH]c2=O)c2c(C)[nH][nH]c2=O)cc(Br)c1OC`, the cell number change is 10.1%. The AC50 under setting [2] was 2.91 µM [rising, partial curve, poor fit].

With `CC(NC(=O)C(=O)N1CCCCC1)C(c1cccs1)N1CCN(Cc2ccccc2)CC1` (configuration not stated), the cell number change worked out at 8.96%. Moreover, the AC50 under setting [2] was 29.1 µM [rising, single point].

For the compound `CN(C)S(=O)(=O)c1ccc(C(=O)Nc2nnc(-c3cccs3)o2)cc1`, the cell number change is -10.1%. Besides, the concentration at half-maximal activity (AC50) under setting [2] is 0.326 µM [falling, full curve, poor fit].

Regarding `CC(C)(CNC(=O)c1cccs1)N1CCOCC1`, the cell number change was -5.07%. For the same compound, under setting [1], the AC50 is 4.11 µM [falling, single point]. Further, under setting [2], the AC50 is 6.51 µM [falling, single point].

As to `Cc1cccc(C(=O)NNC(=O)c2c(O)c3ccccc3n(C)c2=O)c1`, the cell number change turned out to be 72.9%. Besides, the AC50 under setting [1] was 14.6 µM [rising, partial curve].

On to `CC(C)N(C(C)C)S(=O)(=O)c1ccc(NN)nc1`, for which the cell number change was found to be 14.8%. Besides, the AC50 under setting [2] was 5.8 µM [rising, full curve, poor fit].

In the case of `Cc1nn(-c2ccccc2)c(C)c1/C=C/C(=O)OC(C)C(=O)Nc1ncc(Cl)cc1Cl` (configuration not stated), the cell number change was 5.48%. Moreover, the concentration at half-maximal activity (AC50) under setting [2] was 2.59 µM [rising, partial curve].

On to `CCOC(=O)c1c(C)n(-c2ccccc2)c2ccc(O)c(CN(C)C)c12`, for which the cell number change was 2.31%. In addition, the AC50 under setting [1] was 0.651 µM [falling, single point].

As for `CC(C)Oc1ccc(C(=O)NCc2ccco2)cc1`, the cell number change was 4.17%. The AC50 under setting [2] was 29.1 µM [rising, single point].

Turning to `O=C(COC(=O)COc1ccccc1[N+](=O)[O-])Nc1ccc(S(=O)(=O)N2CCCCC2)cc1`, the cell number change is -1.08%. Further, the AC50 under setting [2] was 0.164 µM [rising, full curve, poor fit].

Consider `Cc1ccc(NC(=S)Nc2ccc(F)cc2)cc1`, for which the cell number change came out at 33.1%. Under setting [1], the half-maximal activity concentration (AC50) is 0.731 µM [rising, full curve, poor fit].

As for `COc1ccccc1N1CCN(C(=O)CN(c2ccccc2OC)S(=O)(=O)c2ccccc2)CC1`, the cell number change is -3.5%. Moreover, the AC50 under setting [2] is 2.31 µM [rising, single point].

`CN(C)/C=C(/C(=O)c1ccccc1)n1cncn1`: the cell number change is 128%. Under setting [1], the AC50 was 4.11 µM [falling, single point]. Also, the AC50 under setting [2] is 6.51 µM [falling, single point].

In the case of `Cc1cc(C)c2nc(-c3cccc(Cl)c3)c(C)c(C(=O)N3CCOCC3)c2c1`, the cell number change was found to be 5.57%.

With `Cc1ccc(S(=O)(=O)N2[C@@H](c3ccccc3)C(C(=O)O)=CC[C@H]2c2ccc(C(C)C)cc2)cc1`, the cell number change amounted to 11.7%. The AC50 under setting [2] was 5.17 µM [rising, full curve].

In the case of `COc1ccc(Br)cc1CN1CCSCC1`, the cell number change is 26%. Besides, under setting [2], the AC50 was 29.1 µM [rising, partial curve].

Consider `C=CCN=C1S/C(=C/c2cccc([N+](=O)[O-])c2)C(=O)N1CC=C`, for which the cell number change was determined as 2.34%. Under setting [2], the AC50 is 29.1 µM [rising, single point].

On to `CN(Cc1cn[nH]c1-c1ccc(-c2ccccc2)cc1)CC1CCOCC1`, for which the cell number change turned out to be 10.3%. The AC50 under setting [2] was 1.84 µM [rising, full curve, poor fit].

With `Cc1noc(C)c1S(=O)(=O)N1CCC(C(=O)N2CCC(C)CC2)CC1`, the cell number change is 1.24%. The AC50 under setting [2] was 3.66 µM [falling, partial curve, poor fit].

Regarding `CCOc1ccc(NC(=O)CN(C)C(=O)c2cc(C)on2)cc1OCC`, the cell number change is 25%. Further, the AC50 under setting [1] is 7.31 µM [falling, partial curve, poor fit].

As for `CCCCN1C(=O)C(=O)NC[C@@H]1C(C)CC` (some centres not stated), the cell number change is 6.64%. Under setting [2], the AC50 was 0.058 µM [rising, full curve].

Regarding `CCCCc1ccc(/C=C2\C(=O)c3ccccc3C(O)=C2C(=O)OCC)cc1`, the cell number change is -3.84%. Moreover, under setting [2], the AC50 was 20.6 µM [falling, partial curve].

Consider `NC(=O)c1ccsc1NC(=O)COC(=O)C1CCCN1C(=O)c1cccs1` (configuration not stated), for which the cell number change was -36.4%. Further, the AC50 under setting [1] was 32.6 µM [falling, single point].

With `O=C(COc1ccc2c(-c3ccccc3)cc(=O)oc2c1)Nc1cccnc1`, the cell number change is -3.44%. Under setting [2], the AC50 was 6.51 µM [falling, single point].

In the case of `O=C(COc1cccnc1[N+](=O)[O-])NCc1cccs1`, the AC50 under setting [2] is 5.8 µM [rising, full curve].

For the compound `COc1ccc(NC(=O)c2cc3c(Cl)nc4ccccc4c3s2)c(OC)c1`, the cell number change was -0.141%. Also, the AC50 under setting [2] was 1.3 µM [rising, full curve].

In the case of `COc1ccc([C@H]2CC(=O)C=C(c3ccc(SC)cc3)C2)cc1`, the cell number change is -59.9%. For the same compound, the AC50 under setting [1] was 32.6 µM [falling, single point]. Moreover, under setting [2], the AC50 is 2.31 µM [falling, single point].

On to `CCC(C)C(=O)Nc1cc([N+](=O)[O-])ccc1Cl` (configuration not stated), for which the cell number change is -27.4%. Also, the AC50 under setting [2] was 18.4 µM [rising, single point].

In the case of `CCCC/C=C/C(NC(=O)CCc1ccccc1)c1ccccc1` (configuration not stated), the cell number change is -2.91%. Further, the AC50 under setting [2] was 16.4 µM [rising, partial curve].

As for `CCc1nnc(SCC(=O)NCCC2=CCCCC2)nc1CC`, the cell number change was found to be 27.3%. For the same compound, under setting [2], the AC50 was 29.1 µM [rising, single point].

As for `O=C(NCc1ccco1)c1ccc(Cn2c(=O)c3ccccc3n(Cc3cccc(Cl)c3)c2=O)cc1`, the cell number change was -4.18%. Further, the half-maximal activity concentration (AC50) under setting [2] is 1.64 µM [rising, partial curve].

Consider `CCCc1nc2c(nnn2Cc2ccccc2)c(=O)[nH]1`, for which, under setting [1], the AC50 was 1.84 µM [rising, partial curve].

For `CC1CCN(c2nc3ccccc3nc2N2CCC(C)CC2)CC1`, the cell number change was -32.7%. In addition, the AC50 under setting [1] was 2.91 µM [falling, full curve]. The AC50 under setting [2] was 0.92 µM [falling, full curve].

`O=C(O)/C=C/C(=O)Nc1ccc(N2CCOCC2)nc1N1CCOCC1`: the cell number change is -18.6%. Further, the AC50 under setting [2] was 16.4 µM [falling, partial curve, poor fit].

Take `Cc1ccc(C)c(N2CCN(C(=O)Cc3c(C(=O)O)[nH]c4ccc(Cl)cc34)CC2)c1`: the cell number change was -12.1%.

With `O=C(CCCN1C(=O)C(c2ccccc2)Oc2cccnc21)Nc1cccc(F)c1` (configuration not stated), the cell number change was -28.3%. Also, the AC50 under setting [2] was 6.51 µM [rising, single point].

`CCc1ccccc1NC(=O)CN(C)C(=O)CSc1nn(-c2ccc(F)cc2)c(=S)s1`: the cell number change came to 5.08%. The AC50 under setting [2] is 7.31 µM [rising, single point].

Regarding `CCCCC(NC(=O)c1ccccc1)C(=O)OCC(=O)N1c2ccccc2Sc2ccccc21` (configuration not stated), the cell number change stood at 38.5%.

With `Cc1cc(Br)c(NC(=O)c2c(-c3c(Cl)cccc3Cl)noc2C)c(Br)c1`, the cell number change was -4.17%.

For `COc1ccc(CN(C(=O)CNC(=O)c2ccco2)C(C(=O)NCC2CCCO2)c2ccc(OC)c(OC)c2)cc1` (configuration not stated), the cell number change was -23.8%. The AC50 under setting [2] was 0.206 µM [falling, single point].

Regarding `CN(CC(=O)NC1CCN(Cc2ccccc2)CC1)S(=O)(=O)c1ccc(Cl)s1`, the cell number change was determined as 16.5%. For the same compound, under setting [2], the AC50 was 3.26 µM [falling, single point].

Consider `COC(=O)c1ccc(NC(=O)c2cc3c(CO)cnc(C)c3oc2=Nc2cccc(C(N)=O)c2)cc1`, for which the cell number change was determined as 13.4%. For the same compound, the AC50 under setting [2] was 0.146 µM [falling, single point].

For the compound `CC(C)c1nnc(SCC(=O)N2CCN(C(=O)c3ccco3)CC2)n1N`, the cell number change was -29.8%. In addition, under setting [1], the AC50 is 0.0231 µM [falling, full curve, poor fit].

Turning to `N#C/C(=C\C=C\c1ccccc1)C(=O)Nc1ccccc1`, the cell number change was 8.4%. The AC50 under setting [1] was 4.11 µM [rising, single point]. Moreover, under setting [2], the AC50 is 0.116 µM [falling, full curve, poor fit].

Consider `COc1ccc(-c2nc(C#N)c(NCc3ccccc3Cl)o2)cc1`, for which the cell number change is 1.53%. Under setting [2], the AC50 is 0.58 µM [rising, full curve].

Consider `COc1ccc(-c2cc(=O)oc3cc(OC(C)C(=O)Nc4ccc(CN5CCOCC5)cc4)ccc23)cc1` (configuration not stated), for which the cell number change is -20.1%. In addition, the AC50 under setting [2] is 6.51 µM [rising, single point].

As to `CN(c1ncc(C(F)(F)F)cc1Cl)N1C(=O)c2cccc([N+](=O)[O-])c2C1=O`, the cell number change is -38.5%.

In the case of `Cc1ccc(NC(=O)N2CCCC(c3ccccc3)C2)cc1` (configuration not stated), the cell number change was 15.3%. Also, the AC50 under setting [2] is 0.366 µM [rising, full curve, poor fit].

Regarding `CC(=O)Nc1ccc(C(=O)NCC(=O)OCc2ccccc2F)cc1`, the AC50 under setting [2] was 0.164 µM [falling, full curve].

On to `Nc1nnc(SCC(=O)NN2C(=O)NC3(CCCCC3)C2=O)s1`, for which the cell number change came out at 5.33%. Further, the AC50 under setting [2] is 23.1 µM [rising, single point].

Take `C1=C(c2ccc(-c3ccccc3)cc2)Nc2ncnn2C1c1ccco1` (configuration not stated): the cell number change turned out to be 3.91%. For the same compound, under setting [2], the AC50 is 29.1 µM [rising, single point].

`COc1ccc(C(=O)Nc2nnc(-c3ccco3)s2)cc1`: the cell number change is -65.1%. In addition, the AC50 under setting [1] is 25.9 µM [falling, single point].

`Nc1cc2nc3ccccc3oc-2cc1=O`: the cell number change was -5.95%. Moreover, the AC50 under setting [2] was 25.9 µM [falling, partial curve].

On to `CC1CCN(S(=O)(=O)c2ccc(Cl)cc2)CC1`, for which the cell number change turned out to be 1.78%.

As to `CC(=O)Nc1c([N+](=O)[O-])cc(C)c(Cl)c1[N+](=O)[O-]`, the cell number change is -19%.

On to `CC(CC(=O)NC1CCCCC1)S(=O)(=O)c1ccc2c(c1)CCN2C(=O)C1CC1` (configuration not stated), for which the cell number change was -26.3%. For the same compound, the AC50 under setting [2] is 29.1 µM [rising, single point].

Take `Cc1ccc(NC(=O)Cn2c(O)c(N=NC(N)=S)c3ccccc32)cc1`: the cell number change was found to be 320%. In addition, the AC50 under setting [1] is 18.4 µM [rising, partial curve]. Besides, under setting [2], the AC50 is 29.1 µM [falling, single point].

For the compound `O=C(NCc1ccco1)c1cc2sccc2n1Cc1ccc(F)cc1`, the cell number change was -1.51%. For the same compound, under setting [2], the AC50 is 10.3 µM [rising, partial curve].

Values taken from PubChem BioAssay AID2685 (National Center for Advancing Translational Sciences (NCATS), 2010).
